# In patent publication US20160060307A1 (KYUNGPOOK NATIONAL UNIVERSITY INDUSTRY ACADEMIC COOPERATION …, published 2016):
# Sequences of proteins named here, by UniProt entry; tags and fusion partners are left off. Residues count along the entry.
# UniProt P24394, residues 26-825: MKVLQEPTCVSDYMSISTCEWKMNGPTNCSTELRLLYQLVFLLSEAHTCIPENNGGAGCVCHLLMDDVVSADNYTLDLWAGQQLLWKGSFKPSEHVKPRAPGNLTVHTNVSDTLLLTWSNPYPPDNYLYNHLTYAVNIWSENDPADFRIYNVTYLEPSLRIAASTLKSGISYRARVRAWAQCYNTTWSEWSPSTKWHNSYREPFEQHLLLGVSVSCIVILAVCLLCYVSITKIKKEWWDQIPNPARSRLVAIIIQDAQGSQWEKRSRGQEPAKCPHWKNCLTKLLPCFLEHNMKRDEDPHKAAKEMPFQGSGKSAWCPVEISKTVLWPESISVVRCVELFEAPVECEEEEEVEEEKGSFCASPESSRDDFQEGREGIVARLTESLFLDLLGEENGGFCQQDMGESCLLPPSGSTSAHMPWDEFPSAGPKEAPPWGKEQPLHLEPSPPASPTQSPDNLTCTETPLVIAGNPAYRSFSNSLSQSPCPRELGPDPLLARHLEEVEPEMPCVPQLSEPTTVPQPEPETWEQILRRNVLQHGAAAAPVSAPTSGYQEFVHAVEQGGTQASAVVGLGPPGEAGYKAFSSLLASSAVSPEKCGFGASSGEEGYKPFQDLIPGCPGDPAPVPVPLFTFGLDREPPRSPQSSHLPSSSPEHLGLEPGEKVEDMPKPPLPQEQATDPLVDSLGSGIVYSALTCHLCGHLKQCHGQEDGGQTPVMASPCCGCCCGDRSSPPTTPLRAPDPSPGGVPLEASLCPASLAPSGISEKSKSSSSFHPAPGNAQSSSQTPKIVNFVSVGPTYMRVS
# Where a chain is given by its changes, count along the chain named. No constants are given. Whether binding was seen depends on the method and setting. Some results given as binding are weak or reduced against the parent protein; the word gives no strength. For some assays here: Sequences can lack the tags named with a protein.
# B1: FTL-GG-AP1S: ferritin having AP1S inserted in GG cassette (human ferritin light chain, fourth loop) (designed binder)
# chain: MSSQIRQNYSTDVEAAVNSLVNLYLQASYTYLSLGFYFDRDDVALEGVSHFFRELAEEKREGYERLLKMQNQRGGRALFQDIKKPAEDEWGKTPDAMKAAMALEKKLNQALLDLHALGSARTDPHLCDFLETHFLDEEVKLIKKMGDHLTNLHRGSRKRLDRNGGPEAGLGEYLFERLTLKHD
# modifications: One monomer is given; it assembles into a 24-mer ferritin cage.
# notes: It forms a ferritin-like cage (24-mer); also called FTL-AP1; not shown: His tag from the pET28a(+) vector (Ni-NTA purification, anti-His probe)
# B2: FTL-AP1_AP1: fusion polypeptide in which AP1S was fused to N-terminal of FTL_GG-AP1S (designed binder)
# chain: MRKRLDRNGGGSGMSSQIRQNYSTDVEAAVNSLVNLYLQASYTYLSLGFYFDRDDVALEGVSHFFRELAEEKREGYERLLKMQNQRGGRALFQDIKKPAEDEWGKTPDAMKAAMALEKKLNQALLDLHALGSARTDPHLCDFLETHFLDEEVKLIKKMGDHLTNLHRGSRKRLDRNGGPEAGLGEYLFERLTLKHD
# modifications: One monomer is given; it assembles into a 24-mer ferritin cage.
# notes: Expressed from pET28a(+) via NdeI/XhoI and purified on Ni-NTA (His tag); also called ferritin having two inserted AP1 peptides; not shown: His tag from the pET28a(+) vector (Ni-NTA purification)
# B3: FTL-GG-AP1L: ferritin having AP1L inserted in GG cassette (human ferritin light chain, fourth loop) (designed binder)
# chain: MSSQIRQNYSTDVEAAVNSLVNLYLQASYTYLSLGFYFDRDDVALEGVSHFFRELAEEKREGYERLLKMQNQRGGRALFQDIKKPAEDEWGKTPDAMKAAMALEKKLNQALLDLHALGSARTDPHLCDFLETHFLDEEVKLIKKMGDHLTNLHRGSCRKRLDRNCGGPEAGLGEYLFERLTLKHD
# modifications: One monomer is given; it assembles into a 24-mer ferritin cage.
# notes: pET28a(+) expression with Ni-NTA purification (His tag); Cage-forming; also called 157cysAP1-PBNC; not shown: His tag from the pET28a(+) vector (Ni-NTA purification, anti-His probe)
# B4: FTL-GP-AP1L: ferritin having AP1L inserted in GP cassette (human ferritin light chain, fourth loop) (designed binder)
# chain: MSSQIRQNYSTDVEAAVNSLVNLYLQASYTYLSLGFYFDRDDVALEGVSHFFRELAEEKREGYERLLKMQNQRGGRALFQDIKKPAEDEWGKTPDAMKAAMALEKKLNQALLDLHALGSARTDPHLCDFLETHFLDEEVKLIKKMGDHLTNLHRLGSCRKRLDRNCGPEAGLGEYLFERLTLKHD
# modifications: One monomer is given; it assembles into a 24-mer ferritin cage.
# notes: pET28a(+) expression with Ni-NTA purification (His tag); Cage-forming; not shown: His tag from the pET28a(+) vector (Ni-NTA purification, anti-His probe)
# B5: FTL-GP-AP1S: ferritin having AP1S inserted in GP cassette (human ferritin light chain, fourth loop) (designed binder)
# chain: B1 chain with G155L, S156G, R157S, K158R, R159K, L160R, D161L, R162D, N163R, G164N
# modifications: One monomer is given; it assembles into a 24-mer ferritin cage.
# notes: as for B4
# Biological target: IL-4 receptor on A549 cells overexpressing IL-4 receptor (human) (UniProt P24394)
# Experiment: flow cytometry on A549 cells
row,Binder,binding
1,B1,binds
2,B2,binds

# Biological target: IL-4 receptor protein immobilised on carboxymethyl dextran chip (SPR) (Homo sapiens (Human)) (UniProt P24394)
# Experiment: SPR, IL-4 receptor immobilised
row,binding,Binder
1,binds,B3
2,binds,B4
3,binds,B5

row,Binder,binding
1,B1,binds

# Biological target: IL-4 receptor on A549 cells overexpressing IL-4 receptor (human) (UniProt P24394)
# Experiment: flow cytometry on A549 cells, 400 nM
row,binding,Binder
1,binds,B3
2,binds,B4
3,binds,B5

row,Binder,binding
1,B1,binds

# Biological target: IL-4 receptor on A549 cells overexpressing IL-4 receptor (human) (UniProt P24394)
# Experiment: confocal microscopy on A549 cells, 400 nM
row,binding,Binder
1,binds,B3
2,binds,B4
3,binds,B5

row,Binder,binding
1,B1,binds

# Biological target: IL-4 receptor protein immobilised on carboxymethyl dextran chip (SPR) (Homo sapiens (Human)) (UniProt P24394)
# Experiment: SPR, IL-4 receptor immobilised, 0.65 nM to 41.6 nM
row,binding,Binder
1,binds,B3
2,binds,B4
3,binds,B5

row,Binder,binding
1,B1,binds

# Biological target: IL-4 receptor protein immobilised on carboxymethyl dextran chip (SPR) (Homo sapiens (Human)) (UniProt P24394)
# Experiment: SPR, IL-4 receptor protein immobilised on carboxymethyl dextran chip, ferritin in flow, 0.260-4.166 nM
row,Binder,binding
1,B1,binds

# Biological target: IL-4 receptor protein immobilised on carboxymethyl dextran chip (SPR) (Homo sapiens (Human)) (UniProt P24394)
# Experiment: SPR, IL-4 receptor protein immobilised on carboxymethyl dextran chip, ferritin in flow, 0.520-4.166 nM
row,binding,Binder
1,binds,B2

# Biological target: IL-4 receptor protein immobilised on carboxymethyl dextran chip (SPR) (Homo sapiens (Human)) (UniProt P24394)
# Experiment: SPR, IL-4 receptor protein immobilised on carboxymethyl dextran chip, ferritin in flow, 0.651-10.416 nM
row,binding,Binder
1,binds,B3
2,binds,B4
3,binds,B5

row,Binder,binding
1,B1,binds

# Biological target: IL-4 receptor protein immobilised on carboxymethyl dextran chip (SPR) (Homo sapiens (Human)) (UniProt P24394)
# Experiment: SPR, IL-4 receptor protein immobilised on carboxymethyl dextran chip, RU against ferritin concentration 0.65-41.6 nM
row,binding,Binder
1,binds,B3
2,binds,B4
3,binds,B5

row,Binder,binding
1,B1,binds

# Biological target: IL-4 receptor on A549 cells overexpressing IL-4 receptor (human) (UniProt P24394)
# Experiment: FACS on A549 cells overexpressing IL-4 receptor, ferritin at 400 nM and 200 nM, anti-ferritin light chain antibody and Alexa Fluor 488 secondary
row,Binder,binding
1,B1,binds
2,B2,binds

# Biological target: IL-4 receptor on A549 cells overexpressing IL-4 receptor (human) (UniProt P24394)
# Experiment: FACS on A549 cells overexpressing IL-4 receptor, ferritin at 400 nM, detection with anti-ferritin light chain antibody and Alexa Fluor 488 secondary
row,binding,Binder
1,binds,B3
2,binds,B4
3,binds,B5

row,Binder,binding
1,B1,binds

# Biological target: IL-4 receptor on A549 cells overexpressing IL-4 receptor (human) (UniProt P24394)
# Experiment: confocal microscopy of A549 cells overexpressing IL-4 receptor, ferritin at 400 nM, anti-ferritin light chain antibody and Alexa Fluor 488 secondary
row,binding,Binder
1,binds,B3
2,binds,B4
3,binds,B5

row,Binder,binding
1,B1,binds
